According to publication PMC12411348:
No constants are given. Whether binding was seen depends on the method and setting. In cells and extracts the contact can be indirect. Some entries that bind do so weakly or less than the wild type.

Protein sequences, listed by entry. Tags and fused reporters are not part of them.
UniProt P40337: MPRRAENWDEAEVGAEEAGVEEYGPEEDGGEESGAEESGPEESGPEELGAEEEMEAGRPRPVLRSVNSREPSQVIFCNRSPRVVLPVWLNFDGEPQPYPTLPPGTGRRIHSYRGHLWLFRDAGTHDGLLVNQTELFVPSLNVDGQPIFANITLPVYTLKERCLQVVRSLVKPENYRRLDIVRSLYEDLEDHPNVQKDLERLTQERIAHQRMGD
UniProt P55036: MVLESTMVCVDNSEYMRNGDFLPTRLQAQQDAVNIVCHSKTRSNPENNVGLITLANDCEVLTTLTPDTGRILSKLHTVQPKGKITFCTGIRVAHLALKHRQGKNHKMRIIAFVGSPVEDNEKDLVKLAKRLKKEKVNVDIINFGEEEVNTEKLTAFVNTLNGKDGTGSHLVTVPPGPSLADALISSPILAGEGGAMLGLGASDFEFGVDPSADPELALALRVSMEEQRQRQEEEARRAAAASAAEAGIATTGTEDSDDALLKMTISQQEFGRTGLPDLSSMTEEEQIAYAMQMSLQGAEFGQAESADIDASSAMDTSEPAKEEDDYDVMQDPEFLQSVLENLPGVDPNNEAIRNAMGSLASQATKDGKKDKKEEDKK

Assays:
[1] = molecular target: Flag-pVHL (human) (UniProt P40337); assay: co-IP; transfected HEK293T cells; IP lysis buffer (50 mM Tris–HCl pH 7.5, 150 mM NaCl, 1 mM EDTA, 10% glycerol, 1% Triton X-100), antibody overnight at 4 °C, Protein A/G agarose beads, immunoblot
[2] = molecular target: GST-pVHL fusion protein (human) (UniProt P40337); assay: pull-down; purified GST-fusion protein on glutathione Sepharose 4B beads incubated with HEK293T cell lysates (transfected or untransfected), overnight at 4 °C, washed with lysis buffer, western blot; only the target purified

binding [1]: binds | binding [2]: binds
Substance: endogenous PSMD4 (subunit of the 19S regulatory particle of the 26S proteasome) (from UniProt P55036 1-377)
